{"sequences": {"note": "Protein sequences, listed by entry. Tags and fused reporters are not part of them.", "UniProt Q13950": "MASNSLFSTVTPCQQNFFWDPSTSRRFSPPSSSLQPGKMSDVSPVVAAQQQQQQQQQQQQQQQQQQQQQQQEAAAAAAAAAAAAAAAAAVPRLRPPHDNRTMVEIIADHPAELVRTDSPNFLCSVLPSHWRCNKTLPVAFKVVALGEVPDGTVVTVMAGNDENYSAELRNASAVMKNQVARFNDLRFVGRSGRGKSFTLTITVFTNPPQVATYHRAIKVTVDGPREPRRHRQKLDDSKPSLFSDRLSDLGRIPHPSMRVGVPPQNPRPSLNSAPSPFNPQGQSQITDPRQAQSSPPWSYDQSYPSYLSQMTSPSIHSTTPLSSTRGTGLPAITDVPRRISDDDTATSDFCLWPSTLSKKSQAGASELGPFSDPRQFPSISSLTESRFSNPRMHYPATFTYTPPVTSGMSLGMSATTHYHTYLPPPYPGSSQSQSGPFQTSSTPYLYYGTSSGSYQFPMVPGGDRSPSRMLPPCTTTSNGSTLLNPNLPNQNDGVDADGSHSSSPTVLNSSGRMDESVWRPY", "UniProt Q92793": "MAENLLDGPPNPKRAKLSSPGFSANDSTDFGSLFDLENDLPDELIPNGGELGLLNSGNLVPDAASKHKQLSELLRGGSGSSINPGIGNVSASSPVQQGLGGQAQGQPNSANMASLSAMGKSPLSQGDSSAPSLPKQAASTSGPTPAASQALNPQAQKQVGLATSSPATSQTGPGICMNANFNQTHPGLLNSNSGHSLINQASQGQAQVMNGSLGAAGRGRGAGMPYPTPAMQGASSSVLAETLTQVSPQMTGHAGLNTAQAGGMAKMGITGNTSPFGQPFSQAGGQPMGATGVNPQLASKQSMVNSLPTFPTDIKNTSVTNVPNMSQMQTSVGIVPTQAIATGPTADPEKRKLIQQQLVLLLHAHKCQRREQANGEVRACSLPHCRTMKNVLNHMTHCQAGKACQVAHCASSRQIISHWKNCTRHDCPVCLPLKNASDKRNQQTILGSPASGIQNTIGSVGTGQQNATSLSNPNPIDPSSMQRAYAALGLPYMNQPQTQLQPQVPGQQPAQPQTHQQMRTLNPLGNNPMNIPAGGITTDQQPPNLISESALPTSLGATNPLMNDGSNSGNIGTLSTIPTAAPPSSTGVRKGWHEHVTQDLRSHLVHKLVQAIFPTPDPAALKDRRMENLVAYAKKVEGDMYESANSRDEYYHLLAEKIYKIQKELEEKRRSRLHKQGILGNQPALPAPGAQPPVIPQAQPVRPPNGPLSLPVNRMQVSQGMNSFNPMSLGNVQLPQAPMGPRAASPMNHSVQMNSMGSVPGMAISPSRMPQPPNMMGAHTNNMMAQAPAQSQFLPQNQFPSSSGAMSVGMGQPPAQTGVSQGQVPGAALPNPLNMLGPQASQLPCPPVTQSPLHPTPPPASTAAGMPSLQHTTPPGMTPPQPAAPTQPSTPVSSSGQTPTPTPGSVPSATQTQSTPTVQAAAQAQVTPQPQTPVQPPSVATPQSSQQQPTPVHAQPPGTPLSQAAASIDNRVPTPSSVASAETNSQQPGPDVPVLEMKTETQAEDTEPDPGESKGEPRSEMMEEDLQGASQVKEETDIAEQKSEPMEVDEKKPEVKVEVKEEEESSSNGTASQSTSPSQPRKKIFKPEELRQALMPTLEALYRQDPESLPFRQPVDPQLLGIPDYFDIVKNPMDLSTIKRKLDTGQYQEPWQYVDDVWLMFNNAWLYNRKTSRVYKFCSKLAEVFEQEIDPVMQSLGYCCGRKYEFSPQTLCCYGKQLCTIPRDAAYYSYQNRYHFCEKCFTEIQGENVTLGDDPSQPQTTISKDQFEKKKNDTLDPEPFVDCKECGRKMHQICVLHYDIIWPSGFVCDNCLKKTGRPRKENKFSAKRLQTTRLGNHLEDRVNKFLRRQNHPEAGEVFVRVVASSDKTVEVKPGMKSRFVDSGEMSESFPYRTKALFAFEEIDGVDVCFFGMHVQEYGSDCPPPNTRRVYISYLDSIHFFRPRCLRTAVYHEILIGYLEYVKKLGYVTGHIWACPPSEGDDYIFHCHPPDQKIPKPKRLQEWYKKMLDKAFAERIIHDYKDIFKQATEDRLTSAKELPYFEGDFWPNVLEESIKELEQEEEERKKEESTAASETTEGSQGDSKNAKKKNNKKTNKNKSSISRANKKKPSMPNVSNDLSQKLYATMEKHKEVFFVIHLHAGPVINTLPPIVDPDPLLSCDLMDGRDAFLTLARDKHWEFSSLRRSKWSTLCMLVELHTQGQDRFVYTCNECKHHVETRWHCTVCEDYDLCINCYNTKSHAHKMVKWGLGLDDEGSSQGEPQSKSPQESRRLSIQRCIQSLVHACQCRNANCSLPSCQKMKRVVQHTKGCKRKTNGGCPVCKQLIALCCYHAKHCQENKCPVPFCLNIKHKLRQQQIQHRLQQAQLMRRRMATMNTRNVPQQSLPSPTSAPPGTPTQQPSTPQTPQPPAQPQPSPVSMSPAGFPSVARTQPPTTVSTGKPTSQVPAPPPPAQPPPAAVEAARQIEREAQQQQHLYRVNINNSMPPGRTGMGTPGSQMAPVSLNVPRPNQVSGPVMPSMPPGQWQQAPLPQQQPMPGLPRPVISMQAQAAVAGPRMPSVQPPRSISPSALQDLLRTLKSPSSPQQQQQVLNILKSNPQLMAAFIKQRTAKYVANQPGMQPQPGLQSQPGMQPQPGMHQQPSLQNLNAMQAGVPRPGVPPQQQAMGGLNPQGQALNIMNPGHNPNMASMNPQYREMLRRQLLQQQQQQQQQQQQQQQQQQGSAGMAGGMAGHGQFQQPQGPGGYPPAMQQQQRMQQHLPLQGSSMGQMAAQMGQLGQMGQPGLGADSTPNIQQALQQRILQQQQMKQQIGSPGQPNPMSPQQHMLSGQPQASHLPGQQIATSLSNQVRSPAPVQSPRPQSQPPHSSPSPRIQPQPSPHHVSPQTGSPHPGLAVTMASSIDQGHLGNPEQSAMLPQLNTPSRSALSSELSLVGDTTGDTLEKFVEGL"}, "source": "paper PMC4703748", "target": "runt-related transcription factor 2 (Runx2) (human (endogenous in HOS)) (UniProt Q13950)", "experiment": "co-IP; HOS cells treated with or without 20 uM lansoprazole for 2 d; lysed in 50 mM HEPES, 150 mM NaCl, 10% glycerol, 1% Triton X-100, 1.5 mM MgCl2, 1 mM EGTA, 100 mM NaF, 10 mM sodium pyrophosphate, diluted two-fold; immunoprecipitated with 2 ug anti-Runx2 antibody overnight and Dynabeads Protein …; CBP visualised by immunoblotting", "note": "No constants are given. Whether binding was seen depends on the method and setting. Binding seen in cells or lysates may run through a third protein. Some entries that bind do so weakly or less than the wild type."}
{"substance": "CREB-binding protein (CBP) (from UniProt Q92793 1-2442)", "values": [{"measurement": "binding", "value": "binds"}]}
